Measurements as given in patent publication US20200190176A1 (VERITAS THERAPEUTICS, published 2020).

Assays:
Test in all cases: antigen microarray probed with 9D8 and a fluorescent secondary antibody, IgG reactivity as MFI
HSP 60 = biological target: HSP 60
snRNP A = biological target: snRNP A
snRNP C = biological target: snRNP C

B1: anti-FGL2 monoclonal antibody 9D8 (antibody, mouse IgG1, kappa, V domains shown)
VH: EVQLQQSGAELVKPGASVQLSCTASGFNIKDTYIHWVKQRPEQGLEWIGRIDPEDGNTKYDPKFQAKATITADTFSNTAYLQLSSLTSEDTAVYYCARSYGNAYWGQGTLVTVSA
VL: DIVLTQSPASLAVSLGQRATISCRASQSVSTSRYTYMHWYQQKPGQPPKLLIKYASNLDSGVPARFSGSGSGTDFTLNIHPVQEEDTATYYCQHSWEIWAFGGGTKLEIKR
notes: Mouse hybridoma antibody purified from ascites; isotype-matched control was IgG1; here built without leader from variable region plus constant region; also called clone 9D8; antibody to FGL2 (9D8)
binding (HSP 60): no binding (tested: 1 ug/ml (panel A); 1:1000 (panel B))
binding (snRNP A): no binding (tested: 1 ug/ml (panel A); 1:1000 (panel B))
binding (snRNP C): no binding (tested: 1 ug/ml (panel A); 1:1000 (panel B))

These are yes or no findings as the source states them, for the method shown.
